Measured values published in paper PMC8542387 (2021).

Sequences of proteins named here, by UniProt entry; tags and fusion partners are left off. A change or cut given only in a name is not applied to a line headed by its entry.
UniProt Q12706: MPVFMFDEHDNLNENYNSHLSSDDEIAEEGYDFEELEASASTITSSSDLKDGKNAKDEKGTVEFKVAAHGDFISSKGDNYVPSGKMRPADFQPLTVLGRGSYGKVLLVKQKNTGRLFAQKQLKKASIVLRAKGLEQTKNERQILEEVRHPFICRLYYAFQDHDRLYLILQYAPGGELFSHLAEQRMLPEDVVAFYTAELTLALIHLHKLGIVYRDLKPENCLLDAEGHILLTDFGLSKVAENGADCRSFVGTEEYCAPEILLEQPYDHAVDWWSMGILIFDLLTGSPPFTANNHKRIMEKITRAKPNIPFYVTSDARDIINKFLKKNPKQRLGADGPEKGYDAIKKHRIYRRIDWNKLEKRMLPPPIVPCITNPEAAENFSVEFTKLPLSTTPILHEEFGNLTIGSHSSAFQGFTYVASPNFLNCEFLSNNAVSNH
UniProt P87141: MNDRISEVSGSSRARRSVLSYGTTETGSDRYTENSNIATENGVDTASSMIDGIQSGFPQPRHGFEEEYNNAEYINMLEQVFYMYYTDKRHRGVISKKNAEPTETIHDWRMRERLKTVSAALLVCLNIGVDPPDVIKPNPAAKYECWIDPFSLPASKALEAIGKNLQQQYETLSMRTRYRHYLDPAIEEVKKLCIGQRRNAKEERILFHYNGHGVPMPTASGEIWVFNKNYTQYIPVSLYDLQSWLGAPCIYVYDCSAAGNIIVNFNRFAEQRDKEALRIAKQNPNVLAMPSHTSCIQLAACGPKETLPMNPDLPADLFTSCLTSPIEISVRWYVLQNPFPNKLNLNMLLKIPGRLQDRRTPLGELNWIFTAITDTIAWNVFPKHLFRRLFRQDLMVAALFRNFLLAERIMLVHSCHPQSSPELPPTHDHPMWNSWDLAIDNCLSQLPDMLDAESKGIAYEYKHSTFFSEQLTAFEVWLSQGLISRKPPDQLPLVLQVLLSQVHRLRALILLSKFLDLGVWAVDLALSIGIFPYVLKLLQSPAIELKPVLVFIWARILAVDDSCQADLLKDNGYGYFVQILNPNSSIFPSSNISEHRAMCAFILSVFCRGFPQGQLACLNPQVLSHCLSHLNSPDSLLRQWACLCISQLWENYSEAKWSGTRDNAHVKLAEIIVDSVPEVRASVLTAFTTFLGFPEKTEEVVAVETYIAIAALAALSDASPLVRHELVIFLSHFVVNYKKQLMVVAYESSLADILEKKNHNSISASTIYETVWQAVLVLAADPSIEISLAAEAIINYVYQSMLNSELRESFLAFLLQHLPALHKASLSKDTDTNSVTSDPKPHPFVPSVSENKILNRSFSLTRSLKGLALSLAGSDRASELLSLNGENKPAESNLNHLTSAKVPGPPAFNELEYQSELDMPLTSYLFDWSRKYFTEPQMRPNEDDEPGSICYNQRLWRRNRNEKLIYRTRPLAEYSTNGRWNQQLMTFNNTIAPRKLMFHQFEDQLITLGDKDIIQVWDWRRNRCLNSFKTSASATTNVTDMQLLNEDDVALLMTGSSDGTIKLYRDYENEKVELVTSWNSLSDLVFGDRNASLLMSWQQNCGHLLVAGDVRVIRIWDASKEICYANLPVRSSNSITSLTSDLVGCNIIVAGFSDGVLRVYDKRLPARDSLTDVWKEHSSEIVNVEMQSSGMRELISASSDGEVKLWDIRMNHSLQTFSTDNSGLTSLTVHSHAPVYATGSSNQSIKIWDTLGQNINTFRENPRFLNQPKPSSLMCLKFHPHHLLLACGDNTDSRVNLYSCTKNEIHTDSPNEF

What was measured:
Experiment in all cases: two-hybrid; Psk1 constructs as bait (pGBT8), Mip1 constructs as prey (pGAD GH); budding yeast Y2HGold; ADE2 and HIS3 reporters (adenine and histidine auxotrophic markers)
[1] = molecular target: Psk1 M5A, two-hybrid bait (S. pombe) (UniProt Q12706)
[2] = molecular target: Psk1 E8A, two-hybrid bait (S. pombe) (UniProt Q12706)
[3] = molecular target: Psk1 F4A, two-hybrid bait (S. pombe) (UniProt Q12706)
[4] = molecular target: Psk1 D10A, two-hybrid bait (S. pombe) (UniProt Q12706)
[5] = molecular target: Psk1 H9A, two-hybrid bait (S. pombe) (UniProt Q12706)
[6] = molecular target: Psk1 V3A, two-hybrid bait (S. pombe) (UniProt Q12706)
[7] = molecular target: Psk1 P2A, two-hybrid bait (S. pombe) (UniProt Q12706)
[8] = molecular target: Psk1 D7A, two-hybrid bait (S. pombe) (UniProt Q12706)
[9] = molecular target: Psk1 F6A, two-hybrid bait (S. pombe) (UniProt Q12706)

binding [1]: binds
binding [2]: binds
binding [3]: no binding
binding [4]: binds
binding [5]: binds
binding [6]: no binding
binding [7]: binds
binding [8]: no binding
binding [9]: no binding
Substance: Mip1 (fission yeast RAPTOR ortholog), two-hybrid prey (from UniProt P87141 1-1313)

These are yes or no findings as the source states them, for the method shown. For part of these data: Binding calls can cover weak binding; strength is not graded here.
